Laboratory results published in PMC10721889.
These are yes or no findings as the source states them, for the method shown. Binding can be weak; no strength is given.

Protein sequences, listed by entry. Tags and fused reporters are not part of them. Lines headed by an entry give the natural chain unless they say otherwise; changes in a name come on top.
UniProt Q9V2F4: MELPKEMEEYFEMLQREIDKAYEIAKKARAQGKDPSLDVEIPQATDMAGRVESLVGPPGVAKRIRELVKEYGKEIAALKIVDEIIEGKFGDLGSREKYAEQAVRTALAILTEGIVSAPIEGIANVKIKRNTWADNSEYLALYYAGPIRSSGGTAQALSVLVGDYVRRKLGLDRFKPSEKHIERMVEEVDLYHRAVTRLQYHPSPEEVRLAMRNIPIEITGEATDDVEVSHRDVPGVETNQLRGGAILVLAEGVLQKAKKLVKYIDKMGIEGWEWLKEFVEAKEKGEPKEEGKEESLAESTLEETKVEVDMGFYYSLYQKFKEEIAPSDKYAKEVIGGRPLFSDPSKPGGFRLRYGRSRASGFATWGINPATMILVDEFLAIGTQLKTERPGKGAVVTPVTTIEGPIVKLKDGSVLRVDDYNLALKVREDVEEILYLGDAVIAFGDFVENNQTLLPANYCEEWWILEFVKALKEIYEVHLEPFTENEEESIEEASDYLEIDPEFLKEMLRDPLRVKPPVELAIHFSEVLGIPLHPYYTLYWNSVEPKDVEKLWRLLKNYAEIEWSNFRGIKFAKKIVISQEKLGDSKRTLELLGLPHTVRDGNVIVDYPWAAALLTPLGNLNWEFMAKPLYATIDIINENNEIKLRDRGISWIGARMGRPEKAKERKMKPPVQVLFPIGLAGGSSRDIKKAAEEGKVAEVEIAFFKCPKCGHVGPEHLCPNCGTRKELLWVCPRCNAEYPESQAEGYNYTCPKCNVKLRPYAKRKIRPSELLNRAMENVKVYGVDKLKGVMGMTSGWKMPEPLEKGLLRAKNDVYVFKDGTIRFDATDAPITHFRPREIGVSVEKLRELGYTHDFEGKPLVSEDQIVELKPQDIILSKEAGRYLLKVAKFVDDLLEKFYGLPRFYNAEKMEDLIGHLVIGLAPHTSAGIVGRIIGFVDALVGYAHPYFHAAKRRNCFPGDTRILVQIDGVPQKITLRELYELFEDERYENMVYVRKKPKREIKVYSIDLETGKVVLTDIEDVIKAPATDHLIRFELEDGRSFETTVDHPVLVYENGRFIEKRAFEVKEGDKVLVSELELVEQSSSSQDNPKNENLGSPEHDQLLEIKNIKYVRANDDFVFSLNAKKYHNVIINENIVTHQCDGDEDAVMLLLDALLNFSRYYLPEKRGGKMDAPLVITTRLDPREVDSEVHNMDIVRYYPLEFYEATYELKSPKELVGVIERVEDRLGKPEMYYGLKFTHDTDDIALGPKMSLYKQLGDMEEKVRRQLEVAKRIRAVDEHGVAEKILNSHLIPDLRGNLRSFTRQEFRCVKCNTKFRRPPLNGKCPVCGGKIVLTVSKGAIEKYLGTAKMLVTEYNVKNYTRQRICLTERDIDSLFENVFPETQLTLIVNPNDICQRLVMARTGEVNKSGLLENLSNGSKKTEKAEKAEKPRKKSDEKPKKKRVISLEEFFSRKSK

Biological target: DP2 polymerase (large) subunit of Pyrococcus abyssi PolD (Pyrococcus abyssi) (UniProt Q9V2F4)
Test: cryo-EM structure; 1 µM PolD^exo-, 3 µM PCNA and 1.2 µM mismatched primer/template DNA mixed in 20 mM HEPES pH 8, 150 mM NaCl, 2 mM MgCl2, 20 min at RT; single-particle cryo-EM, exo (closed) and intermediate (open) conformers; both purified

B1: Proliferating Cell Nuclear Antigen (PCNA, the DNA sliding Clamp) (protein, UniProt Q9UYX8 1-249)
chain: MPFEIVFEGAKEFAQLIETASRLIDEAAFKVTEEGISMRAMDPSRVVLIDLNLPASIFSKYEVDGEETIGVNMDHLKKVLKRGKAKETLILRKGEENFLEISLQGTATRTFKLPLIDVEEIEVDLPELPFTAKVVILGDVIKEAVKDASLVSDSMKFIAKENEFTMRAEGETQEVEVKLTLEDEGLLDIEVQEETKSAYGISYLSDMVKGLGKADEVTIKFGNEMPMQMEYYIRDEGRLIFLLAPRVEE
- binding: binds
